{"source": "patent US11608319B2", "about": "“Beta-amino acid derivative, kinase inhibitor and pharmaceutical composition containing the same, and method for performing an in vivo related application that benefits from the inhibition of a kinase” (Industrial Technology Research Institute, priority 2019, dated 2023)", "test_system": "rabbit eyes with high intraocular pressure induced by magnetic beads", "experiment": "Model of magnetic bead induced high intraocular pressure rabbit (intraocular pressure >30 mmHg)", "format": "in vivo, New Zealand white rabbit", "settings": "dose 0.02%, experiment of Table 12", "note": "Certain results were filed several times, with different values. This is not the full list of results. An entry can have further records. Values given together differ for a reason that is not stated; dose, time, organism, isomer or construct need not be as stated for each record."}
{"smiles": "Cc1ccc(C(=O)OCc2ccc([C@@H](CN)C(=O)Nc3ccc4cnccc4c3)cc2)c(C)c1", "note": "[AR-13324, Netarsudil]", "values": [{"measurement": "Maximum intraocular pressure difference (mmHg)", "result": "about 4.3±1.4 mmHg and 4.3 ± 1.4 mmHg"}]}
